PubChem BioAssay AID1259254 – NCATS – 2017
The deposit covers about 59,000 reagents; shown is a part drawn at random. Of all reagents, about 1,550 (2.6%) were called active. 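G2 share is only a proxy for re-replication; each gene was hit by three separate siRNAs, and active genes were retested.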 Raw values are not corrected between plates. A number with no mark means an inactive call. Reagents against one gene are numbered here. Not given: the amount of reagent.

- Screen: 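Finding genes that stop cells copying their DNA twice in one cycle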 (primary screen)
- Cell system: human HCT116 colorectal cancer cells
- Knock-down reagent: single siRNA against human genes
- Timing: 3 days
- Measured: 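Imaged Hoechst DNA stain sorts each cell into a cycle phase by DNA amount; per plate, G2 fraction set to 0% for non-targeting and 100% for GMNN siRNA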
- Direction: G2 robust z-score and G2 cells, % of GMNN control: higher = more G2 cells, more excess DNA replication; raw share of cells in G2: higher = larger share of cells with G2 DNA content
- Hit rule: 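Active siRNAs have a G2 robust z of 5 or more median absolute deviations over the median, which in these data means about 38% or higher of GMNN control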

gene | siRNA no. | G2 robust z-score | G2 cells, % of GMNN control | raw share of cells in G2 (%)
NME2 (GeneID 4831) | 1 | -0.703 | -1.98 | 4.74
NME2 (GeneID 4831) | 2 | -0.697 | -1.94 | 4.97
NME2 (GeneID 4831) | 3 | -0.485 | -0.443 | 3.87
SIGLEC8 (GeneID 27181) | 1 | 0.603 | 7.21 | 6.35
SIGLEC8 (GeneID 27181) | 2 | -0.887 | -3.28 | 3.1
SIGLEC8 (GeneID 27181) | 3 | 0.0601 | 3.39 | 7.7
C8B (GeneID 732) | 1 | -0.505 | -0.584 | 5.03
C8B (GeneID 732) | 2 | -0.666 | -1.72 | 3.46
C8B (GeneID 732) | 3 | -0.694 | -1.91 | 2.77
SLCO1B7 (GeneID 338821) | 1 | -0.846 | -2.99 | 3.79
SLCO1B7 (GeneID 338821) | 2 | -0.687 | -1.87 | 5.1
SLCO1B7 (GeneID 338821) | 3 | -0.505 | -0.586 | 4.07
CYSLTR2 (GeneID 57105) | 1 | -1.28 | -6.02 | 3.69
CYSLTR2 (GeneID 57105) | 2 | -0.879 | -3.22 | 3.39
CYSLTR2 (GeneID 57105) | 3 | 5.68 (active) | 42.9 | 16.4
GRHL2 (GeneID 79977) | 1 | -0.458 | -0.253 | 2.7
GRHL2 (GeneID 79977) | 2 | -0.661 | -1.68 | 5.15
GRHL2 (GeneID 79977) | 3 | 2.12 | 17.9 | 9.24
ENPP5 (GeneID 59084) | 1 | -1.22 | -5.59 | 3.33
ENPP5 (GeneID 59084) | 2 | -0.433 | -0.0807 | 4.32
ENPP5 (GeneID 59084) | 3 | 5.24 (active) | 39.9 | 18.7
ACSS2 (GeneID 55902) | 1 | 1.53 | 13.7 | 12.4
ACSS2 (GeneID 55902) | 2 | -0.0874 | 2.35 | 5.28
ACSS2 (GeneID 55902) | 3 | -0.773 | -2.47 | 3.3
SLC29A4P1 (GeneID 402509) | 1 | 0.353 | 5.45 | 5.79
SLC29A4P1 (GeneID 402509) | 2 | -0.775 | -2.49 | 2.53
SLC29A4P1 (GeneID 402509) | 3 | 4.36 | 33.7 | 18.8
H1-8 (GeneID 132243) | 1 | 0.629 | 7.4 | 6.96
H1-8 (GeneID 132243) | 2 | 0.93 | 9.51 | 6.12
H1-8 (GeneID 132243) | 3 | -0.289 | 0.935 | 2.92
YJU2B (GeneID 81576) | 1 | -0.285 | 0.964 | 2.7
YJU2B (GeneID 81576) | 2 | -0.289 | 0.932 | 4.42
YJU2B (GeneID 81576) | 3 | -0.278 | 1.01 | 3.76
REXO1L1P (GeneID 254958) | 1 | 0.306 | 5.12 | 5.43
REXO1L1P (GeneID 254958) | 2 | 2.33 | 19.3 | 9.75
REXO1L1P (GeneID 254958) | 3 | -0.13 | 2.06 | 3.85
DIAPH1 (GeneID 1729) | 1 | 0.258 | 4.78 | 6.67
DIAPH1 (GeneID 1729) | 2 | 1.37 | 12.6 | 9.6
DIAPH1 (GeneID 1729) | 3 | 1.74 | 15.2 | 9.34
SMC1B (GeneID 27127) | 1 | 0.525 | 6.66 | 9.19
SMC1B (GeneID 27127) | 2 | -0.369 | 0.37 | 4.31
SMC1B (GeneID 27127) | 3 | -0.402 | 0.137 | 4.03
RPL31P7 (GeneID 654391) | 1 | 5.17 (active) | 39.3 | 19
RPL31P7 (GeneID 654391) | 2 | -0.212 | 1.47 | 3.79
RPL31P7 (GeneID 654391) | 3 | 4.46 | 34.3 | 16.5
PRKG1 (GeneID 5592) | 1 | -1.66 | -8.74 | 2.72
PRKG1 (GeneID 5592) | 2 | -0.956 | -3.76 | 4.14
PRKG1 (GeneID 5592) | 3 | 0.441 | 6.07 | 6.16

Entries above marked active (3):
gene | siRNA no. | G2 robust z-score | G2 cells, % of GMNN control | raw share of cells in G2 (%)
CYSLTR2 (GeneID 57105) | 3 | 5.68 (active) | 42.9 | 16.4
ENPP5 (GeneID 59084) | 3 | 5.24 (active) | 39.9 | 18.7
RPL31P7 (GeneID 654391) | 1 | 5.17 (active) | 39.3 | 19
